PubChem BioAssay AID1671190 (National Center for Advancing Translational Sciences (NCATS), 2021)
Among all 580,000 compounds or so, about 6,100 (1.1%) were called active. This list was built around the results that the source calls inconclusive (neither active nor inactive); the mix of calls is not that of the screen. Calls follow the shape of the dose curve; as a rule, active = well fitted inhibition curve with a large enough effect; inconclusive = small, poorly fitted or top-dose-only effect, or another doubt; inactive = no such curve, though single readings can be large or run the other way. Potencies of inconclusive entries are doubtful fits and often do not repeat.

By UniProt entry, the sequences of proteins in these tests, tags left out. Where a name states a change or a piece, a line headed by the entry shows the natural chain unless it says otherwise.
UniProt P18054: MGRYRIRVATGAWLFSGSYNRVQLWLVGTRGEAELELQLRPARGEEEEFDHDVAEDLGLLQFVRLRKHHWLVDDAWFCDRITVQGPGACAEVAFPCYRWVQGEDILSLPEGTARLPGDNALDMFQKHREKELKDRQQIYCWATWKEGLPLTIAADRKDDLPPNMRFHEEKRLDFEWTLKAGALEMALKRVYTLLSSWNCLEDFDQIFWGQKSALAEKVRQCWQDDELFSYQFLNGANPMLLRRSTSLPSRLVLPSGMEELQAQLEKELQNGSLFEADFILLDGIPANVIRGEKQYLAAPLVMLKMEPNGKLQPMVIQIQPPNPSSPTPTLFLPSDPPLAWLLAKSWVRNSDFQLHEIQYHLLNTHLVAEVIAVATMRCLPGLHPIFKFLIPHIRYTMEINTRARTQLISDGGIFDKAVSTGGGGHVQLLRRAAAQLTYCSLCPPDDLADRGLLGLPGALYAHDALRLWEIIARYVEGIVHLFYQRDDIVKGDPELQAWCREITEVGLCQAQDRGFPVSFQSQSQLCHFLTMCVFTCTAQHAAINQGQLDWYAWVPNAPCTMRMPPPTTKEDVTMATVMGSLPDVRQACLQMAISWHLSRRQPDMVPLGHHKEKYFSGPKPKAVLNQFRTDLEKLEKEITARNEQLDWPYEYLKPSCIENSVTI

These compounds were tested against Polyunsaturated fatty acid lipoxygenase ALOX12 (Homo sapiens) (UniProt P18054) (assay: Primary qHTS assay for inhibitors of human arachidonate 12S-lipoxygenase (ALOX12): Round 2). Details: purified 12hLO, xylenol orange hydroperoxide absorbance; series mostly up to 108 µM.
In short: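 Purified human 12hLO at 150 nM in 25 mM Hepes, 0.01% Triton X-100, pH 7.0, preincubated 15 min at room temperature with compound. Reaction started with 40 uM arachidonic acid, 30 min at room temperature. Hydroperoxide measured by Fe-xylenol orange, 573/405 nm absorbance ratio.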
Potency is read from the fitted curve at half-maximal effect.

Compound	Potency
CCN(CC(=O)NC(C)C)C(=O)Cn1c(=O)c2c(ncn2CC(C)C)n(Cc2ccccc2)c1=O	inactive
CC(C)NC(=O)c1cc2n(n1)C(C(F)(F)F)CC(c1ccco1)N2 (stereo not given)	inactive
COc1ccccc1CN1CCC(CNS(=O)(=O)c2cc(-c3onc(C)c3C)ccc2OC)CC1	inconclusive: 56.2 µM [inhibitor, partial curve, poor fit]
CC(C)NC(=O)COc1ccc(OCc2ccccc2)cc1	inactive
O=c1[nH]c2ccc(-c3csc(NC4CC4)n3)cc2[nH]1	active: 17.8 µM
COc1cc(CCC(=O)NC2(C)CCS(=O)(=O)C2)cc(OC)c1OC (stereo not given)	inconclusive: 31.6 µM [inhibitor, partial curve, poor fit]
CC1(C)COC(c2cccc(C3=NC(C)(C)CO3)n2)=N1	inconclusive: 2.24 µM [inhibitor, full curve, poor fit]
O=C1CC(c2c[nH]c3ccccc23)C(=O)N1c1cccc(Br)c1 (stereo not given)	inconclusive: 4.47 µM [inhibitor, full curve]
Cc1onc(-c2c(F)cccc2Cl)c1C(=O)Nc1ccc(S(=O)(=O)N2CCOCC2)cc1	inactive
CCCn1c(NCCc2ccccc2)nc2c1c(=O)n(C)c(=O)n2C	inactive
COc1cc(OC)cc(C(=O)N(Cc2ccco2)c2c(N)n(Cc3ccccc3)c(=O)[nH]c2=O)c1	inconclusive: 28.2 µM [inhibitor, single point]
Cc1ccc(CCN2CCC3(Cc4ccccc4CN([S+](C)(=O)[O-])C3)C2)cc1 (stereo not given)	active: 7.08 µM
COc1ccccc1N1CCN(CCCCNC(=O)c2ccc3ccccc3c2)CC1	inconclusive: 31.6 µM [inhibitor, partial curve, poor fit]
CCc1cc(-c2n[nH]c(C)c2-c2nc3ccccc3n2C)c(O)cc1O	inactive
CCCS(=O)(=O)N1CCN(Cc2ccc3c(c2)c2ccccc2n3CC)CC1	inconclusive: 3.98 µM [inhibitor, full curve, poor fit]
Nc1nc(N)nc(-c2cccc(Cl)c2)n1	inconclusive: 89.1 µM [inhibitor, single point]
O=c1[nH]c(/C=C/c2ccccc2Cl)nc2ccccc12	inconclusive: 178 µM [inhibitor, partial curve, poor fit]
Cc1ccc(C(=O)COC(=O)c2cc(C)nc3c(C)cccc23)cc1	inconclusive: 112 µM [inhibitor, partial curve, poor fit]
O=S(=O)(c1ccc(SCc2ccc(Cl)cc2)nc1)N1CCCC1	inactive
Cc1ccccc1CN1CCN(CC(=O)NCCCN2CCN(c3ccc(F)cc3)CC2)C1=O	inconclusive: 63.1 µM [inhibitor, partial curve, poor fit]

A second format for two compounds above:
CCc1cc(-c2n[nH]c(C)c2-c2nc3ccccc3n2C)c(O)cc1O
  Potency: inactive
CCCS(=O)(=O)N1CCN(Cc2ccc3c(c2)c2ccccc2n3CC)CC1
  Potency: inconclusive: 3.98 µM [inhibitor, full curve, poor fit]
